Results: PubChem BioAssay AID1347076 (National Center for Advancing Translational Sciences (NCATS), 2019)
Hit rate of the full screen: of about 400,000 compounds, about 13,000 (3.2%) were called active. Inconclusive results, whose numbers are uncertain, are shown with a selection of clear calls. Calls come from the whole dose curve; as a rule, active = well fitted cell-killing curve with a large enough effect; inconclusive = small, poorly fitted or top-dose-only effect, or effect the other way; inactive = flat fitted curve, though single readings scatter. A potency beside an inconclusive call is a rough fit, not a confirmed value.

experiment: qHTS assay for MDR1-selective chemotherapeutics: Primary screen using the drug-selected MDR subline cells KB-V1; conditions: KB-V1 MDR cells viability, CellTiter-Glo, 72 h; activity change, negative = cytotoxicity: at 46.1 µM (top of the series); note: nearly all actives have a fitted effect of over 60% in size
Outline: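 Drug-selected KB-V1 cells, grown in DMEM lacking phenol red with 10% FBS, receive compound titrations; after three days at 37 degrees C, surviving cell ATP is quantified by CellTiter-Glo luminescence and responses normalized and curve-fitted.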
% is set by controls: 0 for no effect and ±100 for the full control effect; potency is the fitted concentration of half-maximal effect.

| Structure (SMILES) | Potency | activity change, negative = cytotoxicity |
| --- | --- | --- |
| Cc1ccc(NC(=O)c2ccc(CN3CCc4ccccc4C3)cc2)cc1 | active: 4.11 µM |  |
| N=C1C(=O)OCC1c1ccccc1NC(=O)Nc1ccccc1 (stereo not drawn) | inconclusive: 5.8 µM [rising, single point] |  |
| CCCNC(=O)CN(C)C(=O)c1n[nH]c2ccccc12 | inconclusive: 25.9 µM [rising, single point] |  |
| COc1ccc(C2C(C(=O)OC3CCCCC3)=C(C)Nc3nnnn32)c(OC)c1OC (stereo not drawn) | inconclusive: 7.31 µM [cytotoxic, partial curve] |  |
| COC(=O)c1ccc(NC(=O)COc2ccccc2C(=O)Nc2ccccc2)cc1 | inactive |  |
| CC1(C)Cc2cccc(OCC(=O)Nc3ccccc3N3CCOCC3)c2O1 | active: 3.66 µM |  |
| COC(=O)C1N[C@@H]([C@@H](NC(=O)COc2ccccc2)C(=O)NCc2ccccc2)SC1(C)C (stereo partly drawn) | inconclusive: 11.6 µM [cytotoxic, partial curve, poor fit] |  |
| COC(=O)c1cc(S(=O)(=O)N2CCN(Cc3ccccc3)CC2)c[nH]1 | inconclusive: 25.9 µM [cytotoxic, partial curve, poor fit] |  |
| O=C1CC(N2CCSCC2)C(=O)N1c1ccc(F)cc1 (stereo not drawn) | inconclusive: 2.91 µM [rising, partial curve, poor fit] |  |
| COC(=O)c1c(NC(=O)CC2NCCNC2=O)sc2c1CCCC2 (stereo not drawn) | inconclusive: 8.2 µM [cytotoxic, partial curve] |  |
| COc1ccc2c(CC(=O)Nc3nc(C)cs3)coc2c1 | inconclusive: 29.1 µM [cytotoxic, single point] |  |
| Nc1[nH]c2cc([N+](=O)[O-])ccc2c1-c1ccccn1 | inconclusive: 29.1 µM [cytotoxic, single point] |  |
| CC(=O)Nc1sc(C)c(C)c1C(=O)OCC(=O)N(CC(C)C)C1CCS(=O)(=O)C1 (stereo not drawn) | inconclusive: 29.1 µM [cytotoxic, partial curve, poor fit] |  |
| CCCCCNC(=O)C(c1cccc2ccccc12)n1c(=O)c(-c2ccco2)nc2ccccc21 (stereo not drawn) | inactive |  |
| CN(C)C(=O)c1cccc(-c2cnc3c(NC=O)cc(-c4ccc(F)cc4)cn23)c1 | inconclusive: 29.1 µM [cytotoxic, single point] |  |
| C=CCNC(=O)C1CC1(c1cccc(C)c1)c1cccc(C)c1 (stereo not drawn) | inconclusive: 29.1 µM [cytotoxic, single point] |  |
| S=C1NC[C@H](Cc2ccccc2)N1CC1CCN(CCCCc2ccccc2)CC1 | inactive |  |
| COc1ccc(/C=N/NC(=O)c2ccc(CN3C(=O)c4cccc5cccc3c45)cc2)cc1O | inactive |  |
| COc1ccc(/C=N/NC(=O)c2ccc(Br)o2)cc1Cn1cc([N+](=O)[O-])cn1 | inconclusive: 20.6 µM [cytotoxic, partial curve] |  |
| CC(=O)c1c(C)oc2ccc(N(C(=O)C3CCCCC3)S(=O)(=O)c3cc([N+](=O)[O-])ccc3C)cc12 | inconclusive: 23.1 µM [cytotoxic, single point] |  |
| CCOC(=O)c1noc2ncn(Cc3ccc([N+](=O)[O-])cc3)c(=O)c12 | inactive |  |
| O=C1CC(c2ccco2)Cc2nc(Nc3ccc(F)cc3)ncc21 (stereo not drawn) | inconclusive: 32.6 µM [cytotoxic, partial curve, poor fit] |  |
| Cc1c(NC(=O)CN2C(=O)NC(C)(c3ccc(OC(F)F)cc3)C2=O)c(=O)n(-c2ccccc2)n1C (stereo not drawn) | inactive |  |

Another view of part of the listing above.
COc1ccc(/C=N/NC(=O)c2ccc(CN3C(=O)c4cccc5cccc3c45)cc2)cc1O
  Potency: inactive
COc1ccc(/C=N/NC(=O)c2ccc(Br)o2)cc1Cn1cc([N+](=O)[O-])cn1
  Potency: inconclusive: 20.6 µM [cytotoxic, partial curve]

Going on with the list.

| Structure (SMILES) | Potency | activity change, negative = cytotoxicity |
| --- | --- | --- |
| CCn1cc(CN2CCCC(C(=O)Nc3cccc(-c4cc5ccccc5[nH]4)c3)C2)c(C)n1 (stereo not drawn) | inactive |  |
| CCOC(=O)C1CCCN(Cc2ccc(O)c(OC)c2)C1 (stereo not drawn) | inactive |  |
| CSc1ccc(CCNC(=O)c2c(C)nn(-c3ccc(F)cc3)c2-n2cccc2)cc1 | active: 5.8 µM |  |
| O=C(NCc1ccc(Cl)cc1)C1CCN(S(=O)(=O)c2ccc(F)cc2)CC1 | inconclusive: 20.6 µM [cytotoxic, partial curve, poor fit] |  |
| O=C(c1ccccc1)c1ccccc1C(=O)c1ccccc1 | inactive |  |
| Cc1ccnc(NC(=O)C2CCN(S(=O)(=O)c3ccc(Cl)c(C(F)(F)F)c3)CC2)c1 | inconclusive: 20.6 µM [cytotoxic, partial curve, poor fit] |  |
| O=c1oc2ccccc2cc1-c1nc(-c2cccc(Cl)c2)cs1 | inconclusive: 23.1 µM [rising, partial curve] |  |
| COC(=O)c1ccc(NC(=O)c2ccc3c(c2)C(=O)N(C)C3=O)cc1 | inconclusive: 23.1 µM [rising, single point] |  |
| Cc1cccc(C)c1NC(=O)C1(C)CSCC(=O)N1CCOc1ccccc1 (stereo not drawn) | inactive |  |
| CCOC(=O)N1CCN(S(=O)(=O)c2ccc(C(=O)N(CCCN(C)C)c3nc4c(F)cc(F)cc4s3)cc2)CC1 | inconclusive: 29.1 µM [rising, single point] |  |
| COc1ccccc1N(C)S(=O)(=O)c1ccc(C(=O)Nc2cccc(S(=O)(=O)N3CCOCC3)c2)cc1 | inactive |  |
| CNc1c(C(=O)O)ccc2c1C(=O)c1ccccc1C2=O | inactive |  |
| COc1cc(CCN2C(=O)c3cccc4cccc(c34)C2=O)c(S(=O)(=O)NCCO)cc1OC | inactive |  |
| N#Cc1ccc(C#Cc2ccc3oc4ccccc4c(=O)c3c2)cc1 |  | inconclusive: 39.7% |
| CCOC(=O)N1CCN(C(=O)CSc2ccc(-c3ccccc3OC)nn2)CC1 | inconclusive: 6.51 µM [cytotoxic, partial curve] |  |
| CCN1CCN(c2ccc(S(=O)(=O)N3CCCCC3)cc2NC(=O)/C=C/c2cc(OC)ccc2OC)CC1 | inconclusive: 5.17 µM [cytotoxic, full curve] |  |
| Cc1cn([C@H]2C[C@H](O)[C@@H](/C=C/C(=O)NCCC(C)C)O2)c(=O)[nH]c1=O | inconclusive: 20.6 µM [cytotoxic, partial curve, poor fit] |  |
| CCCCC(=O)N/N=C/c1ccc(Sc2cccc3cccnc23)o1 | inconclusive: 20.6 µM [cytotoxic, single point] |  |
| CCC1CCCCN1S(=O)(=O)c1ccc2c(c1)CCN2C(=O)C1CCC1 (stereo not drawn) | inconclusive: 15.8 µM [cytotoxic, single point] |  |
| Cc1cccc(NC(=O)CSc2nc3c(c(=O)[nH]2)CCCC3)c1C | inconclusive: 25.9 µM [cytotoxic, single point] |  |
| CCn1c(CC(=O)Nc2ccc(F)cc2)nnc1SCC(=O)N1CCOCC1 | inactive |  |
| O=C(CCc1nc2sc3c(c2c(=O)[nH]1)CCCC3)NCC(=O)Nc1ccccc1Br | inactive |  |
| COc1ccc(CCN2CC(C(=O)Nc3ccccc3F)CC2=O)cc1OC (stereo not drawn) | inactive |  |

18 of these compounds in a different format.
Structure (SMILES)	Potency	activity change, negative = cytotoxicity
O=C(c1ccccc1)c1ccccc1C(=O)c1ccccc1	inactive	
Cc1ccnc(NC(=O)C2CCN(S(=O)(=O)c3ccc(Cl)c(C(F)(F)F)c3)CC2)c1	inconclusive: 20.6 µM [cytotoxic, partial curve, poor fit]	
O=c1oc2ccccc2cc1-c1nc(-c2cccc(Cl)c2)cs1	inconclusive: 23.1 µM [rising, partial curve]	
COC(=O)c1ccc(NC(=O)c2ccc3c(c2)C(=O)N(C)C3=O)cc1	inconclusive: 23.1 µM [rising, single point]	
Cc1cccc(C)c1NC(=O)C1(C)CSCC(=O)N1CCOc1ccccc1 (stereo not drawn)	inactive	
CCOC(=O)N1CCN(S(=O)(=O)c2ccc(C(=O)N(CCCN(C)C)c3nc4c(F)cc(F)cc4s3)cc2)CC1	inconclusive: 29.1 µM [rising, single point]	
COc1ccccc1N(C)S(=O)(=O)c1ccc(C(=O)Nc2cccc(S(=O)(=O)N3CCOCC3)c2)cc1	inactive	
CNc1c(C(=O)O)ccc2c1C(=O)c1ccccc1C2=O	inactive	
COc1cc(CCN2C(=O)c3cccc4cccc(c34)C2=O)c(S(=O)(=O)NCCO)cc1OC	inactive	
N#Cc1ccc(C#Cc2ccc3oc4ccccc4c(=O)c3c2)cc1		inconclusive: 39.7%
CCOC(=O)N1CCN(C(=O)CSc2ccc(-c3ccccc3OC)nn2)CC1	inconclusive: 6.51 µM [cytotoxic, partial curve]	
CCN1CCN(c2ccc(S(=O)(=O)N3CCCCC3)cc2NC(=O)/C=C/c2cc(OC)ccc2OC)CC1	inconclusive: 5.17 µM [cytotoxic, full curve]	
Cc1cn([C@H]2C[C@H](O)[C@@H](/C=C/C(=O)NCCC(C)C)O2)c(=O)[nH]c1=O	inconclusive: 20.6 µM [cytotoxic, partial curve, poor fit]	
CCCCC(=O)N/N=C/c1ccc(Sc2cccc3cccnc23)o1	inconclusive: 20.6 µM [cytotoxic, single point]	
CCC1CCCCN1S(=O)(=O)c1ccc2c(c1)CCN2C(=O)C1CCC1 (stereo not drawn)	inconclusive: 15.8 µM [cytotoxic, single point]	
Cc1cccc(NC(=O)CSc2nc3c(c(=O)[nH]2)CCCC3)c1C	inconclusive: 25.9 µM [cytotoxic, single point]	
CCn1c(CC(=O)Nc2ccc(F)cc2)nnc1SCC(=O)N1CCOCC1	inactive	
O=C(CCc1nc2sc3c(c2c(=O)[nH]1)CCCC3)NCC(=O)Nc1ccccc1Br	inactive	

The results go on.

| Structure (SMILES) | Potency | activity change, negative = cytotoxicity |
| --- | --- | --- |
| O=C(c1c[nH]c2ccc(S(=O)(=O)N3CCOCC3)cc2c1=O)N1CCN(c2ccccn2)CC1 | inconclusive: 20.6 µM [rising, single point] |  |
| Cc1ccc(C(=O)Nc2nnc(-c3ccco3)o2)cc1 | inactive |  |
| CNc1cncc(-c2cccc(C(=O)NC3CC3)c2)n1 | inactive |  |
| Cc1ccc(-c2nn(CC(=O)NC(C)c3ccccc3)c(=O)c3ccccc23)cc1 (stereo not drawn) | inactive |  |
| O=C(Nc1ccc(F)cc1)C(CCc1ccccc1)N1CCN(CC(=O)N2CCCC2)CC1 (stereo not drawn) | inconclusive: 9.2 µM [cytotoxic, partial curve, poor fit] |  |
| COc1ccc(N2CCN(C(=S)Nc3cccc(OC)c3)CC2)cc1 | inactive |  |
| Cc1cc(C(=O)Nc2sc(C)c(-c3ccc(F)cc3)c2C(N)=O)no1 | inactive |  |
| COC(=O)c1c(NC(=O)CN2CCN(c3ncccn3)CC2)sc(C(N)=O)c1C |  | inconclusive: -39.5% [cytotoxic] |
| COc1ccc(C(=O)N2CCN(CCNC(=O)C(=O)Nc3ccc(Br)cc3)CC2)cc1 | inconclusive: 13 µM [cytotoxic, partial curve, poor fit] |  |
| COc1ccc(Cl)cc1C(=O)OCC(=O)N(CC(C)C)c1c(N)n(Cc2ccccc2)c(=O)[nH]c1=O | inconclusive: 29.1 µM [cytotoxic, partial curve, poor fit] |  |
| O=C(CCN1C(=O)/C(=C\c2ccccc2Cl)SC1=S)N1CCN(c2ccccc2)CC1 | inconclusive: 23.1 µM [cytotoxic, partial curve] |  |
| N#CC(C(=O)NCc1ccco1)c1nc2ccccc2nc1N1CCOCC1 (stereo not drawn) | inconclusive: 8.2 µM [cytotoxic, partial curve, poor fit] |  |
| Cc1oc2ncnc(N)c2c1C | inconclusive: 20.6 µM [rising, single point] |  |
| O=C(NCc1ccco1)/C(=C/c1ccc(Cl)cc1)NC(=O)c1ccco1 | inconclusive: 29.1 µM [rising, single point] |  |
| Cc1cccc(C)c1OCC(=O)Nc1ccc2c(c1)OCCO2 | inconclusive: 32.6 µM [cytotoxic, partial curve, poor fit] |  |
| OC[C@@H](O)C1OC2NC(=S)OC2C1O (stereo partly drawn) | inconclusive: 23.1 µM [rising, single point] |  |
| CC(C)(C)C(O)CN1CCCC1 (stereo not drawn) | inconclusive: 14.6 µM [cytotoxic, partial curve, poor fit] |  |
| O=C1Nc2ccccc2C12OCC(COc1ccc(Cl)cc1)O2 (stereo not drawn) | inconclusive: 29.1 µM [cytotoxic, partial curve, poor fit] |  |
| CCCCn1c(=O)[nH]c(=O)c2c1nc(COC(=O)c1c(C)noc1C)n2CCC | active: 4.11 µM |  |
| N#Cc1ccccc1OCC(=O)OCC(=O)NCc1ccc2c(c1)OCO2 | inconclusive: 29.1 µM [rising, single point] |  |
| CCN(CC)c1ccccc1/C=C/[n+]1ccc(CCCCI)c2ccccc21 | inconclusive: 23.1 µM [cytotoxic, single point] |  |
| Cc1ccccc1CNC(=O)CN1CCSc2ccccc21 | inconclusive: 18.4 µM [cytotoxic, single point] |  |
